For one molecule, binding results are on record in article PMC10814688.

Chains of the proteins cited; added tags and fusions are not shown.
UniProt Q8BWG8: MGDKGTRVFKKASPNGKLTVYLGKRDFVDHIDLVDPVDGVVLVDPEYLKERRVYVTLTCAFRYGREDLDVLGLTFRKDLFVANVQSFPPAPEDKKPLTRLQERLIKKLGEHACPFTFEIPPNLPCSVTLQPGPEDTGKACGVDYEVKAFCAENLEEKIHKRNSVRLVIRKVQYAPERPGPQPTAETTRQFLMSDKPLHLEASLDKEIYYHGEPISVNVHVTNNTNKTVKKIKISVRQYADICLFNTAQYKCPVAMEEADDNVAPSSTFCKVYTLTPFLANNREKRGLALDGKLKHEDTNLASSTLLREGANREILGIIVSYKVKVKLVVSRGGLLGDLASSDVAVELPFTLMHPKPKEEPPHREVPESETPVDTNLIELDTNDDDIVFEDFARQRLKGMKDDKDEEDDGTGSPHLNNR
UniProt P33766: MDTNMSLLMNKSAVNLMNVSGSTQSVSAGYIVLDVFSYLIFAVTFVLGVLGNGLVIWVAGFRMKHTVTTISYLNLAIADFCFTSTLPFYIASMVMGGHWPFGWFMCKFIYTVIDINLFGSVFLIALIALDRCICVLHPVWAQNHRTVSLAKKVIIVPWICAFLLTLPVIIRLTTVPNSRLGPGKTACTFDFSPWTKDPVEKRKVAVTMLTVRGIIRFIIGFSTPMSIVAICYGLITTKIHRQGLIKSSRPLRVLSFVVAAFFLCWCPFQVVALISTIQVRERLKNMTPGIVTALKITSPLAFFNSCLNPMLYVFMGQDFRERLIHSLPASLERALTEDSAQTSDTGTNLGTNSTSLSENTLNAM

No constants are given. Whether binding was seen depends on the method and setting. In cells and extracts the contact can be indirect. Some entries that bind do so weakly or less than the wild type.

Assay [1] deals with β-arrestin-1 (BAR1) (mouse (endogenous in MPC-5 podocytes)) (UniProt Q8BWG8). In words: co-IP; lysates of differentiated MPC-5 podocytes, untreated or treated for 24 h with 10 ng/mL recombinant suPAR, precipitated with an antibody against BAR1 or IgG; immunoblot for αV-integrin or β3-integrin. A general note: In western blotting, separated proteins are transferred to a membrane and probed.

Assay [2] has as its target mouse formyl peptide receptor-1 (Fpr1) (mouse (endogenous in MPC-5 podocytes)) (UniProt P33766). The assay is described as follows: co-IP; lysates of untreated differentiated MPC-5 podocytes precipitated with an antibody against FPR1 (GeneTex) or rabbit IgG; immunoblot for β3-integrin.

B1: β3-integrin (receptor, UniProt O54890 26-787)
chain: ESNICTTRGVNSCQQCLAVSPVCAWCSDETLSQGSPRCNLKENLLKDNCAPESIEFPVSEAQILEARPLSSKGSGSSAQITQVSPQRIALRLRPDDSKIFSLQVRQVEDYPVDIYYLMDLSFSMKDDLSSIQTLGTKLASQMRKLTSNLRIGFGAFVDKPVSPYMYISPPQAIKNPCYNMKNACLPMFGYKHVLTLTDQVSRFNEEVKKQSVSRNRDAPEGGFDAIMQATVCDEKIGWRNDASHLLVFTTDAKTHIALDGRLAGIVLPNDGHCHIGTDNHYSASTTMDYPSLGLMTEKLSQKNINLIFAVTENVVSLYQNYSELIPGTTVGVLSDDSSNVLQLIVDAYGKIRSKVELEVRDLPEELSLSFNATCLNNEVIPGLKSCVGLKIGDTVSFSIEAKVRGCPQEKEQSFTIKPVGFKDSLTVQVTFDCDCACQAFAQPSSPRCNNGNGTFECGVCRCDQGWLGSMCECSEEDYRPSQQEECSPKEGQPICSQRGECLCGQCVCHSSDFGKITGKYCECDDFSCVRYKGEMCSGHGQCNCGDCVCDSDWTGYYCNCTTRTDTCMSTNGLLCSGRGNCECGSCVCVQPGSYGDTCEKCPTCPDACSFKKECVECKKFNRGTLHEENTCSRYCRDDIEQVKELTDTGKNAVNCTYKNEDDCVVRFQYYEDTSGRAVLYVVEEPECPKGPDILVVLLSVMGAILLIGLATLLIWKLLITIHDRKEFAKFEEERARAKWDTANNPLYKEATSTFTNITYRGT
B1: the binding entry was “no binding” in assay [1] and “binds” in assay [2].
